Results: publication PMC10163288
The list shows a part of the results.

B1: il10ra_site1_normal_mot_HHH_b2_00984_000000042_0001_1_20_H_._HHH_b1_00314_0001_0000400042_0000001_0 (protein)
chain: SSSSSDEELRQEIEELLRELEEAKSSEELAQVALRVLRLIYELKDKELLQELWEIIKRLFSSSSS
B2: il10ra_site1_normal_mot_HHH_b2_03330_000000161_0001_1_19_H_._HHH_b1_00960_0001_0000200016_0000002_0 (protein)
chain: SSSSSDREFHEFWRVFRELAKVDDPEEREELLEILEELAKEAGDPTLRAVVRLLKRKLKSSSSSS
B3: il10ra_site1_normal_mot_2c1a291787c6f40772924d4e9068d803_0001_af2_000000187_0001_34_48_H_._ems_3hM_441_0001_0000400013_0000001_0_af2pred_dldesign_0_af2pred (protein)
chain: NEELKKEIADLYHELSQLLKDDPELQKEVFELACQAYKAINEGNLEEAEALTEKLKAKLEELKKS
B4: il10ra_site1_normal_mot_8756ee2cf497b5429c717dfc0c0bcfd6_0001_000000186_0001_1_13_H_._HHH_b1_04937_af2_0001_0000500020_0000001_0 (protein)
chain: SSSSTEAEEVAELIREAAKLEREGDPEEAKEVLEEAREIAEENNNDVALWQVEYLLRKLNSSSSS
B5: il10ra_site1_normal_mot_HHH_b2_01235_000000294_0001_1_18_H_._HHH_b2_07943_0001_0000200033_0000002_0 (protein)
chain: SSSSSEESQRLYELFRRASELDFEGDEEEAREVLEEAVEIAREAGNPVLLFQAEWFLERVSSSSS
B6: il10ra_site1_sap_23_mot_HHH_b2_08144_af2_000000046_0001_38_52_H_._HHH_b1_01148_0001_0000400014_0000001_0_0001 (protein)
chain: SSSSSSRAERQQVEALLYFAEQANNPDARRIMLERAEELAEELNDPELERLVEEVRERLESSSSS
B7: il10ra_site1_normal_mot_e1dd4851c59bc1cdde016f988f6856bd_0001_1_000000200_0001_16_31_H_._HHH_b1_07157_0001_0000400044_0000001_0_af2pred_0001 (protein)
chain: SSSSSDEEARIKFIVLALVHTFNLSEEQEEELERLAEELLRRGFSAEEIAKILYHKARELGSSSS
B8: il10ra_site1_sap_8_mot_HHH_b2_02386_000000054_0001_1_20_H_._HHH_b1_03230_0001_0000200026_0000002_0_0001 (protein)
chain: SSSSDEERQELIEALKRLARLLIRGNEEEVKELLEHVEELAKELNDERTRRILEDLKRALSSSSS
B9: il10ra_site1_normal_mot_ems_3hM_3349_af2_000000045_0001_25_42_H_._c4dd8cf0dac887b0ed015202f8c0b8fc_0001_af2_0001_0000100005_0000002_0 (protein)
chain: SVEEKLEELLRELGVPPEVIRLIELALRLQLEQNGDPRQAERALLAWLRLLRSPEAKLVIEALER
B10: il10ra_site1_normal_mot_HHH_b1_02397_af2_000000085_0001_39_57_H_._HHH_b2_04747_af2_0001_0000300012_0000002_0 (protein)
chain: SSSSSSDEEERLEKLLEELEKAKTDEEIARIVQEALRIAFRLRDQEALQELLELFRELLSSSSSS
B11: il10ra_site1_normal_mot_e1dd4851c59bc1cdde016f988f6856bd_0001_1_000000200_0001_16_31_H_._ems_3hM_201_0001_0000600034_0000002_0 (protein)
chain: NEEQERAEDALRASARFLEEANVDPRLVELMIQFQARALQHLIQNPENQEFVQEVAEKLIEEVCS
B12: il10ra_site1_normal_mot_HHH_b2_07521_000000141_0001_20_37_H_._HHH_b2_02707_0001_0000300027_0000001_0_af2pred_0001 (protein)
chain: SSSSNAEEAVRLALRAAKHAVRANDPERVRLALKMARALAESANDEEAQRLVEEVAEEIEKSSSS
B13: il10ra_site1_sap_16_mot_HHH_b2_00984_000000042_0001_1_20_H_._HHH_b1_03130_af2_0001_0000100010_0000001_0_0001_af2pred_0001 (protein)
chain: SSSSDERERRAVELLLESAKRIPDPELAEAALRLAREAAELLGDPELEQLVEEVEEELEENSSSS
B14: il10ra_site1_sap_15_mot_HHH_b2_00440_000000044_0001_22_38_H_._HHH_b2_01428_0001_0000200021_0000001_0_0001 (protein)
chain: SSSSDAEEYIRLTKRFIEWLLKEGDEEAARYFLRAARDIAEKEGDPEVRELVEEIEELIDSSSSS
B15: il10ra_site1_sap_23_mot_HHH_b2_06321_af2_000000133_0001_42_55_H_._HHH_b1_02866_0001_0000400038_0000001_1_0001 (protein)
chain: SSSSNEERRRAMELAERITELDQEGNKEEARELVEELEQLAKELNNWAFEFVARLLERIINSSSS
B16: il10ra_site1_normal_mot_HHH_b2_03220_af2_000000223_0001_23_40_H_._HHH_b2_00965_0001_0000200011_0000001_0 (protein)
chain: SSSSSTEEREEVWELIREALHIDDPEERRRVLEEALELAEELNNLLLQFSIRLALRDVGSSSSSS
B17: il10ra_site1_normal_mot_HHH_b2_00277_af2_000000172_0001_1_17_H_._HHH_b1_06276_0001_0000100006_0000001_0_af2pred_0001 (protein)
chain: SSSSSSTEEEVEELLEEAKRIEDPEERSYVLTEAWALAYRLNDPELEREIEEVAKRLTSSSSSSS
B18: il10ra_site1_normal_mot_HHH_b2_03183_af2_000000055_0001_40_56_H_._HHH_b2_02326_0001_0000600061_0000001_0 (protein)
chain: SSSSDEQELAEALVRLIRQAIEAGDERSAEILLLSLEILAEELNDPELRELLEELQELLEGSSSS
B19: il10ra_site1_normal_mot_HHH_b2_07145_000000158_0001_24_40_H_._HHH_b1_06041_0001_0000300053_0000001_0 (protein)
chain: SSSSEEVFEFVKRFIERIVELLRNGDPEEAEKLLEEVKEFAEENNNPALLFSIRHLERVVNSSSS
B20: il10ra_site1_normal_mot_HHH_b1_07278_000000273_0001_1_20_H_._637cc8c69280e3cc9e9840e2bee06d3a_0001_1_0001_0000500007_0000001_0 (protein)
chain: SVEELLEELEKRNYIFVRSLRILLEQLREDPNDEAVREALRHLERIAKELGDPLLEEILELIIEG
B21: il10ra_site1_sap_22_mot_9c3e5e2d2b9ffb70dc788f52fbfab6d5_0001_1_000000198_0001_1_14_H_._HHH_b1_02251_0001_0000200020_0000002_0_0001 (protein)
chain: SSSSSREERLEKLLEELEEALERGDWERAVRLAQEAVRLAFRANDPEFFQELWELFKRAVSSSSS
B22: il10ra_site1_normal_mot_HHH_b1_05056_000000217_0001_1_20_H_._HHH_b2_05193_0001_0000100002_0000001_0 (protein)
chain: SSSSSDEEEVERLLREAEERRQEGDRERVAELLLEALRIAFETNNKEALQLIWEVVRRLASSSSS
B23: il10ra_site1_sap_16_mot_HHH_b2_00943_af2_000000149_0001_1_17_H_._HHH_b1_05639_0001_0000200008_0000001_0_0001 (protein)
chain: SSSSTEELFEALERLAELDREGDEEEFEELVEEAERLAKENGDRLFLIQIEFLLEIFRKAHSSSS
B24: il10ra_site1_normal_mot_5fda0655e6834f3f331eaa9f580e88ed_0001_af2_000000239_0001_36_50_H_._HHH_b1_08295_0001_0000400016_0000002_0 (protein)
chain: SSSDEEEEERLREFVEELVEKYGLSEQVELELEAAVRLLLAAGVSEEFIKLALENAVRLKKSSSS
B25: il10ra_site1_normal_mot_HHH_b1_05357_000000034_0001_23_39_H_._HHH_b2_06351_0001_0000200023_0000001_0 (protein)
chain: SSSSSELEELLREAEELLEEGNPHEASHVLIRAYAIAHERNDEEAKKRIQEVARKAARLAASSSS
B26: il10ra_site1_sap_25_mot_19263c5dd3522ffa6b1c765d9be26258_0001_1_000000064_0001_15_32_H_._26de121311cec1c6b0b9f4dad300ffe3_0001_1_0001_0000100001_0000001_0_0001_ … (protein)
chain: SSSSSDYEERIEELLEEAKRTPDEEEAKELLQEAAKLAVEAGNPELIEEIIRVYAEIAKSSSSSS
B27: il10ra_site1_normal_mot_HHH_b1_05357_000000034_0001_23_39_H_._HHH_b2_07549_0002_0000300038_0000001_0_af2pred_0001 (protein)
chain: SSSSSDEEIREEVEELLEEAKQIEDRKRLAELAVRAIALANELRDPELRRLVREALRRLLSSSSS
B28: il10ra_site1_normal_mot_HHH_b1_08009_000000194_0001_1_19_H_._HHH_b1_00833_0001_0000100001_0000001_0 (protein)
chain: SSSSTVEFTVEFVLELVEELLERGDPEQARFLLERLERVLEDAGDEELLRLVRELLEEIEKSSSS
B29: il10ra_site1_normal_mot_HHH_b2_02053_af2_000000006_0001_3_19_H_._HHH_b1_02427_0001_0000200022_0000001_0 (protein)
chain: SSSSDAEELYELSRKALELLANGNPEEARKLLEEAQEIAEEANNQVILFNIRFLLRQVERQSSSS
B30: il10ra_site1_sap_17_mot_HHH_b2_02267_000000141_0001_1_20_H_._HHH_b2_04031_af2_0001_0000600017_0000002_0_0001_af2pred_0001 (protein)
chain: SSSSDEEEEEALRLLIRLFRLLEEGDEEEARELAEEARRVAEELNDPLTRAAIKLMLEHLSSSSS
B31: il10ra_site1_sap_17_mot_HHH_b2_00076_000000055_0001_40_55_H_._HHH_b1_07763_af2_0001_0000100002_0000002_0_0001 (protein)
chain: SSSSDLEEEVRELLEEAKRIEDPEEVEELLLEAQAIAARARDPRLSHEIIKVYAELNQELSSSSS
B32: il10ra_site1_normal_mot_HHH_b1_05431_000000021_0001_1_19_H_._HHH_b1_05337_af2_0001_0000200008_0000001_0 (protein)
chain: SSSSSDEVFELLRELFELAQRGDEEEFEEVYRRIEELIEELGNFVFEWSLRRIEHNFRFNSSSSS
B33: il10ra_site1_normal_mot_8756ee2cf497b5429c717dfc0c0bcfd6_0001_000000186_0001_1_13_H_._HHH_b2_00465_af2_0001_0000300014_0000002_0_af2pred_0001 (protein)
chain: SSSSNEELEELFELIEKAAELLHNGNPEEAKEVLEEAEELARELNNLAAEAQLRFLKKIVDSSSS
B34: il10ra_site1_normal_mot_HHH_b2_06795_000000133_0001_42_56_H_._HHH_b2_02252_0001_0000200027_0000001_0_af2pred_0001 (protein)
chain: SSSSDREEELLERLLRALERLAELGDEERFEALARFIKRLAKDANDPEIERRVEEIEERVHSSSS
B35: il10ra_site1_sap_22_mot_HHH_b2_02633_000000127_0001_22_39_H_._HHH_b1_07594_0001_0001400080_0000001_0_0001 (protein)
chain: SSSSSDEEVRELLEEAEELAEEGNPREAMRVLAEAVRLAFERGDEEALQLVWELVQRLAESSSSS
B36: il10ra_site1_normal_mot_HHH_b2_02497_000000220_0001_1_20_H_._HHH_b2_03338_0001_0000100003_0000001_0 (protein)
chain: SSSSDEDEEEVERLLEEAKESDDVDESYELIRKAIEVAAESNNQELFRLIMEVIREWLRNSSSSS
B37: il10ra_site1_sap_22_mot_HHH_b1_05609_af2_000000134_0001_1_18_H_._HHH_b1_04617_af2_0001_0000300045_0000002_0_0001 (protein)
chain: SSSSDEREELEELLEEIERLLEEGDPERALELLQEALRFAFQLGDEEILQRLWRLAKEVASSSSS

These binders were tested against il10ra, Q13651 (assay: yeast display titration).

Apparent Kd, inactive:
B1 no binding seen
B2 no binding seen
B3 no binding seen
B4 no binding seen
B5 no binding seen
B6 no binding seen
B7 no binding seen
B8 no binding seen
B9 no binding seen
B10 no binding seen
B11 no binding seen
B12 no binding seen
B13 no binding seen
B14 no binding seen
B15 no binding seen
B16 no binding seen
B17 no binding seen
B18 no binding seen
B19 no binding seen
B20 no binding seen
B21 no binding seen
B22 no binding seen
B23 no binding seen
B24 no binding seen
B25 no binding seen
B26 no binding seen
B27 no binding seen
B28 no binding seen
B29 no binding seen
B30 no binding seen
B31 no binding seen
B32 no binding seen
B33 no binding seen
B34 no binding seen
B35 no binding seen
B36 no binding seen
B37 no binding seen

As a short view, some entries already given:
Apparent Kd, inactive:
B6 no binding seen
B7 no binding seen
B8 no binding seen
B9 no binding seen
B10 no binding seen
B11 no binding seen
B12 no binding seen
B13 no binding seen
B14 no binding seen
B15 no binding seen
B16 no binding seen
